Results on four substances are retold here after patent US20150258217A1 (THE GENERAL HOSPITAL CORPORATION, priority 2012, published 2015).

Bounds are passed on as bounds.

A short description of data set [1]: general procedure: Fmoc solid-phase peptide synthesis; Rink Amide MBHA resin; PyBOP/DiPEA. The note with it: conjugation step.
A short description of data set [2]: general procedure: Fmoc solid-phase peptide synthesis; Rink Amide MBHA; PyBOP/DiPEA. The conditions noted are these: whole synthesis, scale 0.15 mmol.

Regarding “DOTA-Lys(CyAL5.5)-Lys(5 kDa PEG)- βAla - Lys(N3)-NH2”, in data set [1], the conjugation yield is listed as above 90%.

Take “DOTA-Lys(CyAL5.5)-Lys(5 kDa PEG)- βAla -Lys(sPEG-RGD)”: the conjugation yield in data set [1] is reported as above 90%.

“DOTA-Lys(CyAL5.5)-Lys(NH2)-β-Ala-Lys(N3)—NH2”: in data set [2], the isolated yield turned out to be 40%.

With “DOTA-Lys(CyAL5.5)-Lys(NH2)-β-Ala-Lys(N3-DBCO-PEG4-cRGD)-NH2”, in data set [1], the conjugation yield entry is on record as “˜99%”.
